# Among all 320,000 compounds or so, about 22,000 (6.9%) were called active. The inconclusive results got no clear call from the source; some entries with a clear call stand among them for comparison. Calls come from the whole dose curve; as a rule, active = well fitted inhibition curve with a large enough effect; inconclusive = small, poorly fitted or top-dose-only effect, or another doubt; inactive = no such curve, though single readings can be large or run the other way. Where the call is inconclusive, the potency comes from a doubtful curve fit.
# Test: Primary qHTS for delayed death inhibitors of the malarial parasite plastid, 96 hour incubation
# Conditions: P. falciparum luciferase reporter growth; series mostly up to 28.7 µM; activity change, negative = inhibition: at the top concentration
# How it was run: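 Erythrocytes infected with luciferase-expressing P. falciparum were dispensed at 2% hematocrit and 0.05% parasitemia (final), then incubated with compounds 96 hours at 37 C in 5% CO2. Luminescence after detection reagent addition reported growth.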
# % is set by controls: 0 for no effect and ±100 for the full control effect; potency is the fitted concentration of half-maximal effect.
Compound,Potency,"activity change, negative = inhibition"
CC(C)(C)NC(=O)c1ccccc1-c1nc2ccccc2s1,"inconclusive: 10.4 µM [inhibitor, single point]",
COc1ccc(-c2c(-c3ccccc3OC)oc3ccccc23)cn1,"inconclusive: 13.1 µM [inhibitor, single point]",
O=C(Nc1ccc2c(c1)OCO2)C1CCCCC1,"inconclusive: 9.28 µM [inhibitor, partial curve, poor fit]",
Cc1ccc(S(=O)(=O)N(CC(O)CN(C)C)c2ccccc2)cc1 (stereo not given),active: 2.62 µM,
Cc1cc([N+](=O)[O-])c(Cl)cc1NC(=O)C(C)C,"inconclusive: 9.28 µM [inhibitor, partial curve]",
CCOC(=O)C1=C(C)N=C2c3ccccc3C(=O)C2C1c1ccccc1 (stereo not given),,inactive: -18.3%
Cc1ccc(NC(=O)c2cccc(S(=O)(=O)N3CCN(c4ccc(F)cc4)CC3)c2)nc1,"inconclusive: 10.4 µM [inhibitor, single point]",
CC(C)c1ccc(NC2CCCN(C(=O)c3ccncc3)C2)cc1 (stereo not given),"inconclusive: 13.1 µM [inhibitor, single point]",
COc1cc(/C=C/C(=O)OCc2csc(CC(=O)Nc3ccc(C)cc3)n2)ccc1OCC#N,active: 13.1 µM,
Cc1ccc(/C=C/C(=O)Nc2cc(C)on2)cc1,"inconclusive: 1.85 µM [inhibitor, full curve]",
COc1ccc(NC(=O)Nc2nnc(CC(=O)Nc3ccccc3)s2)cc1,,inactive: -14.8%
Cn1c(SCC(=O)NNC(=O)Cc2ccccc2)nc2ccccc2c1=O,,inactive: 8.32%
COc1cccc(CN2CC(C(=O)NCCCn3cccn3)CCC2=O)c1 (stereo not given),,inactive: 27.8%
Nc1nnc(-c2ccco2)s1,,inactive: 4.01%
CN1CCN(c2ccc([N+](=O)[O-])cc2C(=O)c2ccccc2)CC1,"inconclusive: 10.4 µM [inhibitor, single point]",
COc1ccc(/C=C2\SC(N3CCCCC3)=NC2=O)cc1,,inactive: 19.9%
CC(OC(=O)Cc1c(F)cccc1Cl)C(=O)NC1CCCCC1C (stereo not given),"inconclusive: 18.5 µM [inhibitor, single point]",
O=[N+]([O-])c1cc(S(=O)(=O)N2CCCC2)ccc1N/N=C/c1cccnc1,"inconclusive: 0.415 µM [inhibitor, full curve, poor fit]",
Cc1cc(C(C)(C)C)ccc1OC(=O)C1=CC=CN2CCS(=O)(=O)N=C12,,inactive: -4%
COc1cccc(CNC(=O)C2CCN(S(=O)(=O)c3cnc[nH]3)CC2)c1,"inconclusive: 2.62 µM [inhibitor, full curve, poor fit]",
Cc1ccc(OCc2cc(C(=O)N3CCCC(O)C3)no2)cn1 (stereo not given),"inconclusive: 13.1 µM [inhibitor, partial curve]",
CC(=O)NC(c1ccc(C)cc1)c1cc(Cl)c2cccnc2c1O (stereo not given),,inactive: 28.5%
Cc1cc(NC(=O)c2ccc3[nH]c(C)c(C)c3c2)ccn1,active: 2.62 µM,

Compound,Potency,"activity change, negative = inhibition"
CCOC(=O)Cn1c(S(=O)(=O)Cc2ccccc2Cl)nc(-c2ccccc2)c1-c1ccccc1,active: 2.62 µM,
CCOC(=O)C1(Cc2ccccc2C)CCCN(C(=O)CN2C(=O)CSC2=O)C1 (stereo not given),"inconclusive: 18.5 µM [inhibitor, single point]",
NC(=S)NNC(=O)Nc1ccc(Cl)c(Cl)c1,,inactive: 21.8%
Cc1cc(OCC#N)nc(N)n1,"inconclusive: 11.7 µM [inhibitor, partial curve, poor fit]",
CCn1c(SCc2nc(-c3ccccc3)no2)nnc1-c1ccco1,"inconclusive: 10.4 µM [inhibitor, single point]",
O=S(=O)(c1ccccc1)N1N=C(c2ccccc2)CC1c1ccccc1F (stereo not given),,inactive: 32.9%
O=C(C1CCCCC1)N1CCN(C(=O)C2CCCCC2)CC1,"inconclusive: 0.104 µM [inhibitor, partial curve, poor fit]",
COC(=O)CCCCCN1C(=O)NC(c2ccccc2)C(C(=O)OCc2ccccc2)=C1C (stereo not given),"inconclusive: 10.4 µM [inhibitor, single point]",
CCN(c1ccccc1)S(=O)(=O)c1cc(C(=O)Nc2ccccc2Cl)ccc1F,active: 2.94 µM,
CN(C)/C=N/c1sc2c(c1C#N)CC(C)(C)NC2(C)C,"inconclusive: 11.7 µM [inhibitor, single point]",
CCCC(=O)N1CCN(c2nnc(-c3ccc(C)cc3)c3ccccc23)CC1,"inconclusive: 0.0586 µM [inhibitor, full curve, poor fit]",
COc1ccc(/C=N/NC(=O)Cc2cc(OC)c(OC)cc2[N+](=O)[O-])cc1,,inactive: 51.6%
COc1ccc(C2=NOC(C(=O)Nc3cccnc3)C2)cc1OC (stereo not given),"inconclusive: 18.5 µM [inhibitor, single point]",
Cc1nc2ccc(NC(=O)c3ccc([N+](=O)[O-])cc3[N+](=O)[O-])cc2s1,"inconclusive: 14.7 µM [inhibitor, single point]",
c1cncc(CSc2ccc(-c3cccs3)nn2)c1,"inconclusive: 18.5 µM [inhibitor, single point]",
Cc1ccc(C(=O)NCc2ccccc2CN2CCCC2)cc1S(=O)(=O)N1CCOCC1,"inconclusive: 4.15 µM [inhibitor, single point]",
CCN(Cc1ccccc1)C(=S)NC(=O)c1ccccc1Br,"inconclusive: 9.28 µM [inhibitor, partial curve]",
Cc1oc(-c2ccc(F)cc2F)nc1CN1C[C@@H]2C[C@@H](C1)c1cccc(=O)n1C2,"inconclusive: 11.7 µM [inhibitor, single point]",
O=c1c2ccccc2n2c(-c3cccc(Cl)c3)nnc2n1Cc1ccccc1,"inconclusive: 18.5 µM [inhibitor, single point]",
O=C(Nc1ccc(C2=NCCN2)cc1)c1ccc(C(=O)Nc2ccc(C3=NCCN3)cc2)c(Cl)c1,"inconclusive: 0.104 µM [inhibitor, full curve, poor fit]",
CC(C)C(=O)Nc1cc(-c2nc3ncccc3o2)ccc1Cl,"inconclusive: 0.0738 µM [inhibitor, full curve, poor fit]",
COc1ccc(-n2nnnc2SCC(=O)Nc2cccc(C)n2)cc1OC,"inconclusive: 0.928 µM [inhibitor, partial curve, poor fit]",

# Three entries from above, bar-delimited.
Compound | Potency | activity change, negative = inhibition
O=S(=O)(c1ccccc1)N1N=C(c2ccccc2)CC1c1ccccc1F (stereo not given) |  | inactive: 32.9%
O=C(C1CCCCC1)N1CCN(C(=O)C2CCCCC2)CC1 | inconclusive: 0.104 µM [inhibitor, partial curve, poor fit] | 
COC(=O)CCCCCN1C(=O)NC(c2ccccc2)C(C(=O)OCc2ccccc2)=C1C (stereo not given) | inconclusive: 10.4 µM [inhibitor, single point] | 
